Experimental data published in the supplement of paper PMC10849652.
The other results are listed elsewhere or left out. Residues, ends and D or L forms follow the SMILES beside them. *: point of attachment. Cbz = O=C(OCc1ccccc1)*

Protein sequences, listed by entry. Tags and fused reporters are not part of them. Lines headed by an entry give the natural chain unless they say otherwise; changes in a name come on top.
UniProt Q9UID3: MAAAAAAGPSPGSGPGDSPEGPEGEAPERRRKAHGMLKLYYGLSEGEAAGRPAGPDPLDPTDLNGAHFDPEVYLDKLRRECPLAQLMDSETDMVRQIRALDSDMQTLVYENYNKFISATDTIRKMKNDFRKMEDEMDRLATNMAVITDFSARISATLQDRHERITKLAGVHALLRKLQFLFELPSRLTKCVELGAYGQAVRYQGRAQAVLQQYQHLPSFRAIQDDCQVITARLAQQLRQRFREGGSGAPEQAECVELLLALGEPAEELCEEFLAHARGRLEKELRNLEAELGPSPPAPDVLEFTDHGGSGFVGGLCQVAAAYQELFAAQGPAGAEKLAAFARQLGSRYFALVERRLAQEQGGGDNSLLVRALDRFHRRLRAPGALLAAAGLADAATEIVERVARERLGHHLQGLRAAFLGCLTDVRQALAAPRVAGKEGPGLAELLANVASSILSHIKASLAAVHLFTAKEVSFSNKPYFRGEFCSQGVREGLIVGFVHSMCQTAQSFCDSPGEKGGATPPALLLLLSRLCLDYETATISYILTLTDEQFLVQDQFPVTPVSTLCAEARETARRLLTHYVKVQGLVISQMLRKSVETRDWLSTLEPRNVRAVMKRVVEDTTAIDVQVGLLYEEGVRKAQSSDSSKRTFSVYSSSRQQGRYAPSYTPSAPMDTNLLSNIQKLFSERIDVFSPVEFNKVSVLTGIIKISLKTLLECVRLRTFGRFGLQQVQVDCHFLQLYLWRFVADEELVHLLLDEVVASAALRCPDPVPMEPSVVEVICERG
UniProt Q96JG6: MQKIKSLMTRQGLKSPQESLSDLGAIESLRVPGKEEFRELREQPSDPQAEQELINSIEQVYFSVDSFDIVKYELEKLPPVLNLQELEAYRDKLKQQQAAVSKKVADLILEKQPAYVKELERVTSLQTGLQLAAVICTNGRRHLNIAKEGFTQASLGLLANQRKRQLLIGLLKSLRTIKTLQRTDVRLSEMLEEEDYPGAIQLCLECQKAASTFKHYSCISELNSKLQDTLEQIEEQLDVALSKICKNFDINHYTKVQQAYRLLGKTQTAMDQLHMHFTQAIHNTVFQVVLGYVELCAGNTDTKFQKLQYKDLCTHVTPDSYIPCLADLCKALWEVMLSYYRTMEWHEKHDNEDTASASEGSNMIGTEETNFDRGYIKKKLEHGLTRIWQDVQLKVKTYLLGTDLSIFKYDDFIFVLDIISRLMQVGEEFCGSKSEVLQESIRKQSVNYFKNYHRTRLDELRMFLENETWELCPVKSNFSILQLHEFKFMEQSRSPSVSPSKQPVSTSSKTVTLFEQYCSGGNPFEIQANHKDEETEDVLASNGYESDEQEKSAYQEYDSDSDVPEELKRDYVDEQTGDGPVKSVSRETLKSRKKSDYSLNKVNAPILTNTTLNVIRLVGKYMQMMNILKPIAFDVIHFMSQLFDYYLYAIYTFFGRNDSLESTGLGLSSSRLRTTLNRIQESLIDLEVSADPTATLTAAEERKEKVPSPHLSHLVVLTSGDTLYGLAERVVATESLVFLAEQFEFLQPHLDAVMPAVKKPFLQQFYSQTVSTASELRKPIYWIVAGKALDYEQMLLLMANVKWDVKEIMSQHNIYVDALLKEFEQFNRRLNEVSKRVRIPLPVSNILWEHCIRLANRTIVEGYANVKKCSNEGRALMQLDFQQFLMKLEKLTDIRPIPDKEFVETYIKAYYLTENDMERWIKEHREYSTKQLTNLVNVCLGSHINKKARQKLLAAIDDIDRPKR
UniProt Q9H7M9, whole entry, looked up: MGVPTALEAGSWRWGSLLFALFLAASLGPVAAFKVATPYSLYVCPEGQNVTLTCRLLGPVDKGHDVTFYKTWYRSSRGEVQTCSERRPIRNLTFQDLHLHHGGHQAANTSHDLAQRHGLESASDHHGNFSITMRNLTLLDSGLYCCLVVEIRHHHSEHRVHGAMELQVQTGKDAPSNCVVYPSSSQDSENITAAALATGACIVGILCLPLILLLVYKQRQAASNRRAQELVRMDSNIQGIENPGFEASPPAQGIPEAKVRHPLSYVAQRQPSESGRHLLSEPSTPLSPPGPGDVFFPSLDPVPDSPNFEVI
UniProt Q8N1B4: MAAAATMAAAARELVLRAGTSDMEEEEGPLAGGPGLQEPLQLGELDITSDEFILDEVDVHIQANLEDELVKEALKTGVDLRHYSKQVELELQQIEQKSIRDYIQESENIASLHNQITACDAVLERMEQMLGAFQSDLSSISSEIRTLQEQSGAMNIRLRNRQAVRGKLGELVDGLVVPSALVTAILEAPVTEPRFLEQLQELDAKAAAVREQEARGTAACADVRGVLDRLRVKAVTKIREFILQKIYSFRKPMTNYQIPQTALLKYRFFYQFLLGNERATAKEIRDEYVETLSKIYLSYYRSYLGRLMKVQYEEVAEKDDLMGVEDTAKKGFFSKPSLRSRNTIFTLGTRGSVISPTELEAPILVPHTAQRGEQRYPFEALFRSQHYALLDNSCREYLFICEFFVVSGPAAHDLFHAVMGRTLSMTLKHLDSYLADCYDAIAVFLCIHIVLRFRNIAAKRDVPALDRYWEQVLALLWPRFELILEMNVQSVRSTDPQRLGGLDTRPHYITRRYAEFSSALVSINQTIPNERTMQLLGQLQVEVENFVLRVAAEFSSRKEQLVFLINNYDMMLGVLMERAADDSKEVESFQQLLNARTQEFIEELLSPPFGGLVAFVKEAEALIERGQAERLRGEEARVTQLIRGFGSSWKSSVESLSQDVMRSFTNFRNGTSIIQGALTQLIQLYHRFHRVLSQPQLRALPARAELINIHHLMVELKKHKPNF
UniProt Q3ZAQ7: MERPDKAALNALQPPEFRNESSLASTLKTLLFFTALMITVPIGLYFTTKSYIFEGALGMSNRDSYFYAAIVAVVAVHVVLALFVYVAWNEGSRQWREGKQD
UniProt P21796, whole entry, looked up: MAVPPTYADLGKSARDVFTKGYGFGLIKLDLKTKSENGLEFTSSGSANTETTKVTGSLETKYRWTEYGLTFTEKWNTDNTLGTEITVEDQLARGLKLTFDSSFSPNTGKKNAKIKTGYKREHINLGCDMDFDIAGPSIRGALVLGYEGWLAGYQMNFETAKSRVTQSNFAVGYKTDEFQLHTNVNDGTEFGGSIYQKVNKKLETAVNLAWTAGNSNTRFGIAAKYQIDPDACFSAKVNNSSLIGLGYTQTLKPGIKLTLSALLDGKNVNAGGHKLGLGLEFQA
UniProt O43379: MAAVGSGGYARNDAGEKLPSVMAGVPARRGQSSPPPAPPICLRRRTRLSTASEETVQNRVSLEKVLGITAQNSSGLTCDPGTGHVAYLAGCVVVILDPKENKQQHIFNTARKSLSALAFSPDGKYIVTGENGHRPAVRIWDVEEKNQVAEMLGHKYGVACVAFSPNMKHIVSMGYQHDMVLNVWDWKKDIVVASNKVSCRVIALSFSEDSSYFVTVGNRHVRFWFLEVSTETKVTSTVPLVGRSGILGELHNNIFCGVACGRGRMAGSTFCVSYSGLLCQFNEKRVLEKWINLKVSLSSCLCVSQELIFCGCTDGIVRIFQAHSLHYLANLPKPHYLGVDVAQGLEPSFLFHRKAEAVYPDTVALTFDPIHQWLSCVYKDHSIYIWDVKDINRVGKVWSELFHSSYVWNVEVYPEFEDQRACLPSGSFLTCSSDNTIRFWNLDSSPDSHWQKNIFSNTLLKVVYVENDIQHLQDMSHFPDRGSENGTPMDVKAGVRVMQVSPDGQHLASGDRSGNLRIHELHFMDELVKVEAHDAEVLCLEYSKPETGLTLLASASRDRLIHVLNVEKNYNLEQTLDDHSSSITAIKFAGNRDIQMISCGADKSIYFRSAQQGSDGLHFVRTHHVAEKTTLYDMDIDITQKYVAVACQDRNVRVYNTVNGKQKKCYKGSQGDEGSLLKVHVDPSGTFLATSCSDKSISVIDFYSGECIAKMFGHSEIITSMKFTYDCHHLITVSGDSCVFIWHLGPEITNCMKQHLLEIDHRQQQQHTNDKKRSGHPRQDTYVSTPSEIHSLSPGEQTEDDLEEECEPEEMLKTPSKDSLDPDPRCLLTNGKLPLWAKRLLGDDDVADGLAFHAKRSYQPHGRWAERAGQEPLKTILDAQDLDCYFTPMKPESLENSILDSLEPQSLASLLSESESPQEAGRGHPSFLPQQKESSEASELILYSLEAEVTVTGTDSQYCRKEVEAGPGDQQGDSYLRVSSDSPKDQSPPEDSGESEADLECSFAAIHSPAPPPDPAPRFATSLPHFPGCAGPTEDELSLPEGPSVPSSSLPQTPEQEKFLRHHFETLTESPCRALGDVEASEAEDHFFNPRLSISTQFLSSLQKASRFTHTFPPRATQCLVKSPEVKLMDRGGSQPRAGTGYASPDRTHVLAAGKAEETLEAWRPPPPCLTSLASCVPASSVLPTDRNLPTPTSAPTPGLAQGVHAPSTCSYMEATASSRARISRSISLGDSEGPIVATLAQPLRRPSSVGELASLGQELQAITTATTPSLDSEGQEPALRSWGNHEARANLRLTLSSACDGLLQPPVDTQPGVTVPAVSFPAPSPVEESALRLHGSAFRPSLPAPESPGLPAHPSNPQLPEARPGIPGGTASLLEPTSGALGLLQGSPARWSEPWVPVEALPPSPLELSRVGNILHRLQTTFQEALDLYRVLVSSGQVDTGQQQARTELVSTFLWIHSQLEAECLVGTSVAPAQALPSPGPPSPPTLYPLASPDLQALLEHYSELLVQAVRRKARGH
UniProt Q9Y277: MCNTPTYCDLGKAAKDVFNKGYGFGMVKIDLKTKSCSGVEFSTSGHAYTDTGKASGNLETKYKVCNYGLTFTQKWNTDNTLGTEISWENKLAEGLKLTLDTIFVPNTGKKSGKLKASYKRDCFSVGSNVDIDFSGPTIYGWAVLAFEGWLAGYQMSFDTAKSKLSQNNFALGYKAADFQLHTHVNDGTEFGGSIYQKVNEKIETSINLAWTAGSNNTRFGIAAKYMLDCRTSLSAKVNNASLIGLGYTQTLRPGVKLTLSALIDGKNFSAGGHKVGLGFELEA
UniProt O43516: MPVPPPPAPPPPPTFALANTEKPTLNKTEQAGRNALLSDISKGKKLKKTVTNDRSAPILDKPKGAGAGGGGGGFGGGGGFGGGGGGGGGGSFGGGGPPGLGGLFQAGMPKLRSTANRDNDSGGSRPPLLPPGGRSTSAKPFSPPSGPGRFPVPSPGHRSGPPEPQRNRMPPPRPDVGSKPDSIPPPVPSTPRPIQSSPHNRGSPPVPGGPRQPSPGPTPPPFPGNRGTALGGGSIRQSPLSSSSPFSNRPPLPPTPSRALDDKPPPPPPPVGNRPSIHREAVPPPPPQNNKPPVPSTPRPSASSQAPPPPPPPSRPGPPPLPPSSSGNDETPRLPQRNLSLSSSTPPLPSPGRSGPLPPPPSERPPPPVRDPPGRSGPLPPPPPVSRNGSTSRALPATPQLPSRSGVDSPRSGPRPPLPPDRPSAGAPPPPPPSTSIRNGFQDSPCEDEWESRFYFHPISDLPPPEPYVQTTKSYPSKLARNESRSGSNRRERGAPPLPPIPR
UniProt Q9UK41: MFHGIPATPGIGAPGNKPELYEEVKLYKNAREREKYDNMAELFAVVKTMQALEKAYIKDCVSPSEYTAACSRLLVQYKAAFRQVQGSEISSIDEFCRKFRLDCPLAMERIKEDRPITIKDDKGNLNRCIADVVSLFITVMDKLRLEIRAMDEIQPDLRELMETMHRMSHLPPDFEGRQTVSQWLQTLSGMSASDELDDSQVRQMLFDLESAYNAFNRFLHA
UniProt P30291: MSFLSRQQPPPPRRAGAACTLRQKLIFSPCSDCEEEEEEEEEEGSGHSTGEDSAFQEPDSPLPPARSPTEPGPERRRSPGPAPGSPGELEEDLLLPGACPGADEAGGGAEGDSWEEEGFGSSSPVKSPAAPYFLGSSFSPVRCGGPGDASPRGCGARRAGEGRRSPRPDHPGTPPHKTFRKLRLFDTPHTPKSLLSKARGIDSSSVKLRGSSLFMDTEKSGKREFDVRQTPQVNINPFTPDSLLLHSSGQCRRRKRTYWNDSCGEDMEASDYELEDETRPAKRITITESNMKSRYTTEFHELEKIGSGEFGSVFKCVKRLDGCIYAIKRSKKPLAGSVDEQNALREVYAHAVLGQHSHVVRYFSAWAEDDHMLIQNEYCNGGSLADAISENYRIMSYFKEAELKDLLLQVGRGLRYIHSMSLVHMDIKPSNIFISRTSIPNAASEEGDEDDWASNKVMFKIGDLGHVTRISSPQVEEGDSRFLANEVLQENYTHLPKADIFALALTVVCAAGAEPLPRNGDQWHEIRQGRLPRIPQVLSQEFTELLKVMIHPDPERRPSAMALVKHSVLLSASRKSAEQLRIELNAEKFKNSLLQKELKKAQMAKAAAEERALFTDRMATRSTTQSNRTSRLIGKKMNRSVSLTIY

Experiments:
Assay in all cases: log2 fold change, soluble protein after heating vs DMSO (PISA); higher = thermal stabilisation; K562 cells, 10 uM, 30 min; active = over 0.2 and 3.5 SD of the protein, either way, in both replicates (recomputed)
IRAK-1-4 Inhibitor I = compound: C1COCCN1CCN2C3=CC=CC=C3N=C2NC(=O)C4=CC(=CC=C4)[N+](=O)[O-] [IRAK-1-4 Inhibitor I]
Outline: (§1)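 Soluble protein was defined as the supernatant after 21,000xg for 90 min. It came from K562 cells at 2×10^6 cells/mL given 10 μM compound for 30 min, heated in aliquots for 3 min across 48°C-58°C, pooled, and extracted in PBS with 0.5% NP-40 at 4°C, and was quantified by TMTpro 16plex LC-MS/MS with equalised channel sums. Thermal stability against control samples, from duplicates, is reported as log2 fold change.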

ibrutinib = compound: C=CC(=O)N1CCC[C@@H](n2nc(-c3ccc(Oc4ccccc4)cc3)c3c(N)ncnc32)C1 [ibrutinib]
Outline: as §1

[1] = compound: CC(=O)c1cnc2ccc(-c3cc(Cl)c(O)c(Cl)c3)nc2c1N[C@H]1CC[C@H](CN(C)C)CC1
Outline: as §1

ralimetinib = compound: CC(C)(C)Cn1c(N)nc2ccc(-c3[nH]c(C(C)(C)C)nc3-c3ccc(F)cc3)nc21 [ralimetinib]
Outline: as §1

[2] = compound: CC(C)(O)CC(=O)NCCn1ccc2ncnc(Nc3ccc(Oc4cccc(C(F)(F)F)c4)c(Cl)c3)c21
Outline: as §1

[3] = compound: CC(C)C1=C2N=C(C=C(N2N=C1)NCC3=CC=CC=C3)NCCCCCCN
Outline: as §1

[4] = compound: CC(C)C[C@@H](C=O)NC(=O)[C@H](CC(C)C)NC(=O)[C@H](CC(C)C)NC(=O)OCc1ccccc1
Outline: as §1

pinometostat = compound: CC(C)N(C[C@H]1O[C@@H](n2cnc3c(N)ncnc32)[C@H](O)[C@@H]1O)[C@H]1C[C@@H](CCc2nc3cc(C(C)(C)C)ccc3[nH]2)C1 [pinometostat]
Outline: as §1

[5] = compound: CC1=C(C2=C(C=C1)C(=O)C3=CC=CC=C3N2CCCN)C
Outline: as §1

[6] = compound: CC1=C(C(CC(=O)N1)C2=CC=C(C=C2)C(F)(F)F)C(=O)NC3=C(C=C4C(=C3)C=NN4)F
Outline: as §1

Measured: log2 fold change

VPS33B (UniProt Q9H267)
inactive: IRAK-1-4 Inhibitor I -0.049 | ibrutinib -0.041 | [1] -0.068 | ralimetinib 0.057 | [2] -0.107 | [3] -0.178 | [4] 0.098 | pinometostat 0.156 | [5] 0.049

VPS51 (UniProt Q9UID3)
inactive: IRAK-1-4 Inhibitor I 0.016 | ibrutinib -0.015 | [1] 0.009 | ralimetinib 0.024 | [2] -0.042 | [3] -0.115 | [4] 0.001 | pinometostat 0.05 | [5] 0.105

WDHD1 (UniProt O75717)
inactive: IRAK-1-4 Inhibitor I -0.055 | ibrutinib 0.006 | [1] -0.087 | ralimetinib -0.038 | [2] -0.065 | [3] -0.125 | [4] 0 | pinometostat -0.03 | [5] -0.063

VPS50 (UniProt Q96JG6)
inactive: IRAK-1-4 Inhibitor I -0.046 | ibrutinib -0.009 | [1] -0.003 | ralimetinib 0.12 | [2] -0.138 | [3] -0.099 | [4] 0.053 | pinometostat -0.014 | [5] 0.023

Retrieved one by one from above (two):
VPS51 (UniProt Q9UID3)
inactive: IRAK-1-4 Inhibitor I 0.016 | ibrutinib -0.015 | [1] 0.009 | ralimetinib 0.024 | [2] -0.042 | [3] -0.115 | [4] 0.001 | pinometostat 0.05 | [5] 0.105

WDHD1 (UniProt O75717)
inactive: IRAK-1-4 Inhibitor I -0.055 | ibrutinib 0.006 | [1] -0.087 | ralimetinib -0.038 | [2] -0.065 | [3] -0.125 | [4] 0 | pinometostat -0.03 | [5] -0.063

Continuation:

VWF (UniProt P04275)
inactive: IRAK-1-4 Inhibitor I 0.022 | [1] 0.003 | pinometostat -0.066

WDR81 (UniProt Q562E7)
inactive: IRAK-1-4 Inhibitor I 0.036 | ibrutinib -0.068 | [1] 0.059 | ralimetinib 0.052 | [2] -0.01 | [4] 0.162 | pinometostat -0.013 | [6] 0.039 | [5] -0.165

WDR75 (UniProt Q8IWA0)
inactive: IRAK-1-4 Inhibitor I -0.081 | ibrutinib -0.026 | [1] -0.196 | ralimetinib 0.189 | [2] 0.012 | [4] 0.178 | pinometostat 0.197 | [5] 0.402

VSIR (UniProt Q9H7M9)
inactive: IRAK-1-4 Inhibitor I 0.119 | ibrutinib 0.007 | ralimetinib -0.146 | [2] 0.03 | [3] 0.04 | [4] 0.024 | pinometostat 0.051 | [6] -0.006

VPS52 (UniProt Q8N1B4)
inactive: IRAK-1-4 Inhibitor I -0.057 | ibrutinib 0.068 | [1] 0 | ralimetinib 0.05 | [2] -0.161 | [3] -0.02 | [4] 0.088 | pinometostat 0.048 | [5] 0.142

VMA21 isoform 2 (UniProt Q3ZAQ7)
inactive: IRAK-1-4 Inhibitor I 0.03 | ibrutinib 0.057 | [1] 0.01 | [2] 0.082 | [3] 0.155 | pinometostat -0.035 | [6] 0.002 | [5] -0.049

VKORC1 (UniProt Q9BQB6)
inactive: IRAK-1-4 Inhibitor I -0.056 | ibrutinib 0.024 | [1] -0.033 | ralimetinib -0.052 | [3] -0.306 | [4] -0.029 | pinometostat 0.092 | [5] 0.049

VMA21 (UniProt Q3ZAQ7)
inactive: IRAK-1-4 Inhibitor I 0.146 | ibrutinib 0.052 | [1] 0.067 | [2] -0.074 | [3] 0.061 | pinometostat 0.043 | [6] 0.008

VIRMA (UniProt Q69YN4)
inactive: IRAK-1-4 Inhibitor I -0.105 | ibrutinib -0.07 | ralimetinib -0.033 | [2] -0.061 | [3] -0.052 | [4] 0.123 | pinometostat 0.042 | [6] 0.176

VDAC1 (UniProt P21796)
inactive: IRAK-1-4 Inhibitor I 0.07 | [1] 0.02 | ralimetinib -0.035 | [2] 0.021 | [3] 0.058 | [4] -0.039 | pinometostat -0.032 | [5] -0.016

WDR62 isoform 4 (UniProt O43379)
active: [1] -0.579
inactive: IRAK-1-4 Inhibitor I 0.085 | ibrutinib -0.069 | ralimetinib 0.003 | [2] -0.003 | [3] -0.085 | [4] 0.042 | pinometostat 0.062 | [5] -0.176

VPS39 (UniProt Q96JC1)
inactive: IRAK-1-4 Inhibitor I -0.055 | ibrutinib -0.015 | [1] -0.036 | ralimetinib -0.018 | [2] -0.039 | [3] -0.265 | [4] 0.031 | pinometostat 0.032 | [5] 0.008

VPS35, A0A1W2PP10
inactive: IRAK-1-4 Inhibitor I 0.022 | ibrutinib 0.085 | [2] -0.065 | pinometostat 0.128 | [6] 0.076 | [5] -0.05

VDAC3 (UniProt Q9Y277)
inactive: IRAK-1-4 Inhibitor I 0.037 | [1] -0.021 | ralimetinib -0.029 | [2] 0.024 | [3] 0.024 | [4] -0.003 | pinometostat 0 | [6] 0.031 | [5] 0.004

VEGFA (UniProt H0YBI8)
inactive: IRAK-1-4 Inhibitor I -0.178 | ibrutinib 0.07 | [1] -0.338 | ralimetinib 0.053 | [3] 0.183 | [4] -0.056 | pinometostat 0.145 | [6] -0.222 | [5] -0.258

WIPF1 isoform 3 (UniProt O43516)
inactive: IRAK-1-4 Inhibitor I 0.065 | ibrutinib 0.049 | [1] 0.047 | ralimetinib -0.069 | [3] 0.077 | [4] 0.082 | pinometostat 0.039 | [6] 0.107 | [5] -0.199

VPS28 (UniProt Q9UK41)
inactive: IRAK-1-4 Inhibitor I -0.052 | ibrutinib 0.058 | [1] -0.018 | ralimetinib -0.051 | [2] -0.13 | [3] -0.189 | [4] 0.027 | pinometostat 0.059 | [5] 0.04

WEE1 (UniProt P30291)
inactive: IRAK-1-4 Inhibitor I 0.025 | ibrutinib 0.013 | ralimetinib 0.037 | [2] -0.034 | [3] -0.019 | [4] 0.296 | pinometostat 0.066 | [5] 0.263
active: [1] -1.1

WDR53 (UniProt Q7Z5U6)
inactive: IRAK-1-4 Inhibitor I 0.075 | ibrutinib 0.007 | [1] 0.028 | ralimetinib -0.057 | [3] 0.139 | [4] 0.025 | pinometostat -0.047 | [5] 0.108
